Here are results for 39 molecules from the supplement of paper PMC12823440, “Inhibitors supercharge kinase turnover through native proteolytic circuits” (Nature, 2025).

The chains behind the UniProt entries cited, without tags or fusion partners. Where a name states a change or a piece, a line headed by the entry shows the natural chain unless it says otherwise.
UniProt P49840: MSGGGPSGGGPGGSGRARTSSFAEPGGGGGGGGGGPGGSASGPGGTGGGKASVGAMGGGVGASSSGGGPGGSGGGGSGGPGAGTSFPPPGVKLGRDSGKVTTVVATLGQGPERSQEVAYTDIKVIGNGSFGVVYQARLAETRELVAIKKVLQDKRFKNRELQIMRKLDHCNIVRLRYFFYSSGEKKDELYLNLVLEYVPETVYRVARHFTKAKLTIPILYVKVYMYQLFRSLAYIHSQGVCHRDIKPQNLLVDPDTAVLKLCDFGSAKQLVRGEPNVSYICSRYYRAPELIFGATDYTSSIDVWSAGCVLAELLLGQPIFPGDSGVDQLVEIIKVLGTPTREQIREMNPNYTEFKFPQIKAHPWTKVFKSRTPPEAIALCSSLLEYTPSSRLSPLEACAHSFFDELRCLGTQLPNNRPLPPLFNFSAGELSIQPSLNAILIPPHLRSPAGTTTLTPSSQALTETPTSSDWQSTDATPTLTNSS

Molecules are shown by their SMILES. Structures can show the parent of a compound that is named as a salt. The list shows a part of the results. Hit calls seldom repeat between salt and free forms of one compound.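 In K562 cells expressing nanoluciferase-fused kinases, luminescence was recorded at 4 h intervals between 2 and 18 h, normalized as percent of control with DMSO at 100% and a positive control at 0%. A significant (2 sigma) signal drop marks a time point as decreased. The authors' rule for a hit is not shown and takes in more than the number of time points.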

The target of the assay is GSK3A (UniProt P49840). The experiment in a line: number of time points (of 5) at which kinase-Nluc abundance scored as decreased, DMSO-normalised (count); higher = more persistent destabilization. The conditions noted are these: K562; 2-18 h.
As to `C=C(CCC=C(C)C)[C@H]1CC[C@]2(C)[C@@H]1[C@H](O)C[C@@H]1[C@@]3(C)CC[C@H](O[C@@H]4O[C@H](CO)[C@@H](O)[C@H](O)[C@H]4O[C@@H]4O[C@H](CO)[C@@H](O)[C@H](O)[C@H]4O)C(C)(C)[C@@H]3CC[C@]12C` [Ginsenoside Rk1] (10 µM), the “number of time points” value was 0.

As for `CCn1c(=O)c(-c2ccc(-c3cncs3)cc2Cl)cc2cnc(Nc3ccc(N4CCN(C)CC4)cc3)nc21` (2.5 µM), the “number of time points” value is 0.

Consider `Nc1nccc(Oc2ccc(NC(=O)c3cn(COP(=O)(O)O)cc(-c4ccc(F)cc4)c3=O)cc2F)c1Cl` (10 µM), for which the “number of time points” value is 0.

With `Cc1cc(-c2cc(OC(=O)c3ccccc3)ccc2Cl)cc2nnc(Nc3ccc(OCCN4CCCC4)cc3)nc12` (0.5 µM), the “number of time points” value amounted to 0.

Take `OC[C@H]1O[C@@H](Oc2cc3c(O)cc(O)cc3[o+]c2-c2cc(O)c(O)c(O)c2)[C@H](O)[C@@H](O)[C@@H]1O` [Delphinidin 3-glucoside (chloride)] (10 µM): the “number of time points” value was found to be 0.

As to `O=C(/C=C/c1ccc(O)c(O)c1)c1ccc(O[C@@H]2O[C@H](CO)[C@@H](O)[C@H](O)[C@H]2O)c(O)c1O` [Marein] (10 µM), the “number of time points” value turned out to be 0.

With `O=C1Nc2nc(-c3c(O)cccc3OCC3CC3)cc([C@@H]3CCCNC3)c2CO1` [Bay 65-1942 (hydrochloride)] (10 µM), the “number of time points” value came to 0.

As for `CC(C)CN(CC(=O)N1CCN(CC(OCc2ccc3ccccc3c2)c2ccc(Cl)cc2Cl)CC1)CC(C)C` (centres undefined) [LYN-1604 (dihydrochloride)] (2.5 µM), the “number of time points” value was 0.

On to `CCc1cc(O)c(F)cc1-c1ccc2c(-c3nc4c([nH]3)CN(C3CCN(C)CC3)CC4)n[nH]c2c1` [JAK-IN-5 (hydrochloride)] (2 µM), for which the “number of time points” value is 0.

For the molecule `Cc1ccc(Nc2cc(-c3cccc(N4C(=O)c5ccccc5C4=O)c3)ncn2)cc1NS(C)(=O)=O` (10 µM), the “number of time points” value was 0.

Take `C=C1C(=O)O[C@@H]2C[C@@]3(C)CCC[C@H](C)C3=C[C@H]12` [Alantolactone] (10 µM): the “number of time points” value came out at 0.

For `C=C(C)C(=O)Nc1cccc(-c2ncnc3[nH]cc(C(=O)OCC)c23)c1` (10 µM), the “number of time points” value was 0.

Regarding `CNc1nc(Nc2cnn(C3CCN(C4COC4)CC3F)c2Cl)ncc1C(F)(F)F` (centres undefined) (10 µM), the “number of time points” value is 0.

`Cc1cc(Nc2cc(Cl)nc(Oc3ccc([N+](=O)[O-])cc3)n2)n[nH]1` [Autophinib] (2.5 µM): the “number of time points” value is 0.

Regarding `CC(C)=CC[C@H](O)C1=CC(=O)c2c(O)ccc(O)c2C1=O` [(-)-Alkannin] (2.5 µM), the “number of time points” value stood at 0.

On to `CNCc1ccccc1-c1csc([C@@H](C)Nc2nc(C)nc3cc(OC)c(OC)cc23)c1` (2.5 µM), for which the “number of time points” value is 0.

Consider `COc1ncc(-c2nc(N3CCOCC3)nc3c(CN4CCC(C(C)(C)O)CC4)cc(F)cc23)cc1NS(C)(=O)=O` [Linperlisib] (10 µM), for which the “number of time points” value amounted to 0.

For the molecule `O=C(Nc1ccc(F)cc1F)[C@H](NC(=S)Nc1cc(C(F)(F)F)cc(C(F)(F)F)c1)c1ccccc1` (2.5 µM), the “number of time points” value came to 0.

Turning to `O=C1NC(=O)C(=Cc2ccc(-c3ccc(F)cc3)o2)S1` (stereo in doubt) (10 µM), the “number of time points” value worked out at 0.

With `CCOc1cc(C(=O)N2CCC(N3CCN(C)CC3)CC2)ccc1Nc1ncc2c(n1)N(C1CCCC1)c1ccccc1C(=O)N2C` (10 µM), the “number of time points” value was 0.

For `OC(COc1ccc(C(F)(F)F)cc1)CN(Cc1ccccc1)Cc1ccccc1` (centres undefined) (2.5 µM), the “number of time points” value was 0.

Take `C[C@@H]1C(=O)O[C@H](C)[C@H]1C[C@@H](O)[C@](C)(O)[C@H]1CC[C@@]2(O)C3=CC(=O)[C@@H]4C[C@@H](O)[C@@H](O)C[C@]4(C)[C@H]3CC[C@]12C` [Cyasterone] (10 µM): the “number of time points” value was found to be 0.

In the case of `Cc1c(CN2CCN(C(=O)[C@H](C)O)CC2)sc2c(N3CCOCC3)nc(-c3cnc(N)nc3)nc12` [Apitolisib] (10 µM), the “number of time points” value stood at 0.

Consider `CC(C)(C)NC(=O)c1cncn1C1CCN(c2ccc(-c3nnc(C(F)(F)F)o3)cn2)CC1` (10 µM), for which the “number of time points” value was 0.

For `NCc1ccc(Nc2ncc(F)c(Nc3ccccc3)n2)cc1` (10 µM), the “number of time points” value turned out to be 0.

As to `COC1(c2sc3c(N4CCOCC4)nc(-c4cnc(N)nc4)nc3c2C)COC1` (2.5 µM), the “number of time points” value turned out to be 1.

In the case of `COc1cc2c[n+](C)c3c4cc5c(cc4ccc3c2cc1OC)OCO5` [Nitidine (chloride)] (2 µM), the “number of time points” value turned out to be 0.

`N#Cc1ccc2ncnc(NC3CCC(N4CCOCC4)CC3)c2c1` (centres undefined) (10 µM): the “number of time points” value is 0.

For the molecule `COc1ccc2c(c1O)OC(C)(C)c1c-2ccc2c1C(=O)N(c1ccc(C(=O)c3ccccc3)cc1)C2=O` [Ampkinone] (10 µM), the “number of time points” value stood at 0.

With `CC1=C2C(=O)O[C@@H](c3ccoc3)[C@]2(C)CCC1` [Fraxinellone] (10 µM), the “number of time points” value is 0.

Turning to `CS(=O)(=O)c1ccc(-c2cnc(N)c(C(=O)Nc3ccccc3)n2)cc1` (10 µM), the “number of time points” value is 0.

For `O=C(NC(NC(=S)Nc1ccc(F)c([N+](=O)[O-])c1)C(Cl)(Cl)Cl)C(c1ccccc1)c1ccccc1` (centres undefined) (10 µM), the “number of time points” value stood at 0.

For `COc1cc(C(N)=O)nc(-c2cccc(C#C[C@]3(O)CCN(C)C3=O)c2)c1` (10 µM), the “number of time points” value stood at 0.

Turning to `O=C(Nc1cc(Oc2cc(F)c(NC(=O)C3(C(=O)Nc4ccc(F)cc4)CC3)cc2F)ccn1)C1CC1` [Altiratinib] (10 µM), the “number of time points” value was 0.

`COc1ccc(Cl)cc1NC(=O)Nc1cc(C)nc2ccccc12` (2.5 µM): the “number of time points” value was 0.

Take `COc1ccc(CC(=O)Nc2nc3c(s2)CCc2ccccc2-3)cc1OC` (10 µM): the “number of time points” value amounted to 0.

For `N[C@H](Cc1c[nH]c2ccccc12)C(=O)N/N=C/c1ccc2nccnc2c1` [Rhosin (hydrochloride)] (10 µM), the “number of time points” value was 0.

With `CC(C)(C)c1ccc(S(=O)(=O)Nc2ccc(-n3ccnc3)cc2)cc1` (10 µM), the “number of time points” value came to 0.

Take `Cc1ccc(-c2c(C(=O)CF)n(CCCO)c3ncnc(N)c23)cc1` (10 µM): the “number of time points” value was 0.
